One molecule from article PMC3349753 can be followed below.

Chains of the proteins cited; added tags and fusions are not shown.
UniProt P60953: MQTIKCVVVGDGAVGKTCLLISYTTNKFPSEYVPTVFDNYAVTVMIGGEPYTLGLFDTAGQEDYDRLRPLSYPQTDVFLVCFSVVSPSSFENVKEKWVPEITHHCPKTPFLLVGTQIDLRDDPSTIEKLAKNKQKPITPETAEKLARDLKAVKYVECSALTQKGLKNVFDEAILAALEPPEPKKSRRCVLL

No constants are given. Whether binding was seen depends on the method and setting. Binding seen in cells or lysates may run through a third protein. Some binding calls cover weakened binding; strength is not graded here. Sequences can lack the tags named with a protein.

For one assay, the target named is Flag-tagged Cdc42 (UniProt P60953). Briefly: co-IP; NPC-TW01 cells co-expressing Flag-tagged Cdc42 and Myc-tagged full-length or truncated FGD4; lysates precipitated with anti-Flag affinity matrix; blot with anti-Flag and anti-Myc.
Assay [1] has as its target Myc-tagged full-length FGD4 (FYVE, RhoGEF and PH domain-containing 4) (human) (UniProt Q96M96). In words: co-IP; NPC-TW01 cells co-expressing Flag-FGD4 and Myc-FGD4 or its truncated forms; lysates precipitated with anti-Flag affinity matrix.

B1: Myc-tagged full-length FGD4 (FYVE, RhoGEF and PH domain-containing 4) (protein, UniProt Q96M96 1-766)
chain: MEEIKPASASCVSKEKPSKVSDLISRFEGGSSLSNYSDLKKESAVNLNAPRTPGRHGLTTTPQQKLLSQHLPQRQGNDTDKTQGAQTCVANGVMAAQNQMECEEEKAATLSSDTSIQASEPLLDTHIVNGERDETATAPASPTTDSCDGNASDSSYRTPGIGPVLPLEERGAETETKVQERENGESPLELEQLDQHHEMKETNEQKLHKIANELLLTERAYVNRLDLLDQVFYCKLLEEANRGSFPAEMVNKIFSNISSINAFHSKFLLPELEKRMQEWETTPRIGDILQKLAPFLKMYGEYVKGFDNAMELVKNMTERIPQFKSVVEEIQKQKICGSLTLQHHMLEPVQRIPRYEMLLKDYLRKLPPDSLDWNDAKKSLEIISTAASHSNSAIRKMENLKKLLEIYEMLGEEEDIVNPSNELIKEGQILKLAARNTSAQERYLFLFNNMLLYCVPKFSLVGSKFTVRTRVGIDGMKIVETQNEEYPHTFQVSGKERTLELQASSAQDKEEWIKALQETIDAFHQRHETFRNAIAKDNDIHSEVSTAELGKRAPRWIRDNEVTMCMKCKEPFNALTRRRHHCRACGYVVCWKCSDYKAQLEYDGGKLSKVCKDCYQIISGFTDSEEKKRKGILEIESAEVSGNSVVCSFLQYMEKSKPWQKAWCVIPKQDPLVLYMYGAPQDVRAQATIPLLGYVVDEMPRSADLPHSFKLTQSKSVHSFAADSEELKQKWLKVILLAVTGETPGGPNEHPATLDDHPEPKKKSEC
Regarding B1, the binding entry (with Flag-tagged Cdc42; in assay [1]) was “binds” in each case.
